Measured values: the supplement of paper PMC9015667
Structures can show the parent of a compound that is named as a salt. The list shows a part of the results. Many values rest on one well or one pass, so single values are uncertain.

Each compound was assayed on M229P (parental melanoma line) (assay: reduction in cell viability relative to untreated/vehicle; higher = more growth inhibition). Conditions: 200 nM; 72 h.

Row | SMILES | reduction in cell viability [%]
1 | CC(C)(C)c1cc(C(C)(C)C)c(NC(=O)c2c[nH]c3ccccc3c2=O)cc1O [Ivacaftor] | < 0
2 | CC(C)Oc1cc(Nc2nc(N[C@@H](C)c3ccc(F)cn3)ncc2Cl)n[nH]1 | < 0
3 | CC(C[N+](C)(C)C)OC(N)=O (configuration not stated) [Bethanechol chloride] | < 0
4 | CS(=O)(=O)c1cccc(CNc2nc(Nc3ccc4c(c3)CCC(=O)N4)ncc2C(F)(F)F)c1 | < 0
5 | Cn1c(N2CCCCS2(=O)=O)nc(C(=O)NCc2ccc(F)cc2)c(O)c1=O | < 0
6 | O=C(Nc1cccc(C(F)(F)F)c1)Nc1cc(S(=O)(=O)NC2CC2)ccc1-c1ccsc1 | < 0
7 | COc1ccc(-c2cc3nccn3c(Nc3ncccc3C(N)=O)n2)cc1OC | < 0
8 | CC(=O)NC[C@H]1CN(c2ccc(N3CCOCC3)c(F)c2)C(=O)O1 [Linezolid] | < 0

Retrieved by compound from the list above, two records:
Row | SMILES | reduction in cell viability [%]
7 | COc1ccc(-c2cc3nccn3c(Nc3ncccc3C(N)=O)n2)cc1OC | < 0
1 | CC(C)(C)c1cc(C(C)(C)C)c(NC(=O)c2c[nH]c3ccccc3c2=O)cc1O [Ivacaftor] | < 0

What follows are compounds tested on M229R (matched melanoma line resistant to BRAF inhibitors) in the same assay as above. Conditions: 200 nM; 72 h.

Row | SMILES | reduction in cell viability [%]
9 | Cc1c(C)n(Cc2ccc(-c3ccccc3C(=O)O)cc2)c2ccc(C(=O)N[C@@H](C)c3ccc([N+](=O)[O-])cc3)cc12 | < 0
10 | O=c1cc(CN2CCOCC2)occ1OCCCCCSc1ccnc2cc(C(F)(F)F)ccc12 | < 0
11 | O=c1ncn2nc(Sc3ccc(F)cc3F)ccc2c1-c1c(Cl)cccc1Cl | < 0
12 | CO[C@H]1/C=C/O[C@@]2(C)Oc3c(C)c(O)c4c(c3C2=O)C2=NC3(CCN(CC(C)C)CC3)NC2=C(NC(=O)/C(C)=C\C=C\[C@H](C)[C@H](O)[C@@H](C)[C@@H](O)[C@@H](C)[C@H](OC(C)=O)[C@@H]1C)C4=O [Rifabutin] | 4.71
13 | O=C(O)C1=CO[C@@H](O[C@@H]2O[C@H](CO)[C@@H](O)[C@H](O)[C@H]2O)[C@@H]2C(CO)=CC[C@H]12 [Geniposidic acid] | < 0
14 | O=c1c(-c2ccc(O)cc2)coc2cc(O)cc(O)c12 [Genistein] | < 0
15 | CC(CCc1ccc(O)cc1)NCCc1ccc(O)c(O)c1 (configuration not stated) [Dobutamine] | < 0
16 | C=C1C(=O)[C@]23[C@H](O)[C@H]1CC[C@H]2[C@@]12CO[C@]3(O)[C@@H](O)[C@@H]1C(C)(C)CC[C@@H]2O [Oridonin] | < 0
17 | CC(C)OC(=O)C(C(=O)OC(C)C)=C1SC=CS1 [Malotilate] | < 0
18 | COc1cc2c(cc1-c1c(C)noc1C)ncc1[nH]c(=O)n([C@H](C)c3ccccn3)c12 | < 0
19 | Oc1ccc([C@@H]2Oc3ccc(O)cc3[C@@H]3CCC[C@@H]32)cc1 [Erteberel] | 1.88
20 | CN1CCN(c2c(F)cc3c(=O)c(C(=O)O)cn(CCF)c3c2F)CC1 [Fleroxacin] | < 0
21 | COc1cccc2cc(-c3nc([C@H]4CC[C@H](C(=O)O)CC4)n4ncnc(N)c34)[nH]c12 | < 0
22 | O=c1c(O)c(-c2ccc(O)c(O)c2)oc2cc(O)cc(O)c12 [Quercetine] | < 0
23 | NCC(=O)Nc1ccc(-n2nc(C(F)(F)F)cc2-c2ccc3c(ccc4ccccc43)c2)cc1 | < 0
24 | CC(C)C[C@@H](N)[C@H](O)C(=O)N[C@H](C(=O)N[C@H](C(=O)N[C@@H](CC(=O)O)C(=O)O)C(C)C)C(C)C [Amastatin] | < 0
25 | C/C=C/C[C@@H](C)C(=O)[C@H]1C(=O)N[C@@H](C(C)C)C(=O)N(C)CC(=O)N(C)[C@@H](CC(C)C)C(=O)N[C@@H](C(C)C)C(=O)N(C)[C@@H](CC(C)C)C(=O)N[C@@H](C)C(=O)N[C@H](C)C(=O)N(C)[C@@H](CC(C)C)C(=O)N(C)[C@@H](CC(C)C)C(=O)N(C)[C@@H](C(C)C)C(=O)N1C [Valspodar] | < 0
26 | CCOC(=O)N1CCN(/[N+]([O-])=N/Oc2cc(O/N=[N+](\[O-])N3CCN(C(=O)OCC)CC3)c([N+](=O)[O-])cc2[N+](=O)[O-])CC1 [Double JS-K] | < 0
27 | O=c1[nH]cc(F)c(=O)[nH]1 [Fluorouracil] | < 0
28 | COc1ccc(Cn2ccc3ccc(C(=O)NO)cc32)cc1 | < 0
29 | C[C@@H]1COC(Nc2ccc3ncnc(Nc4ccc(OCc5nccs5)c(Cl)c4)c3c2)=N1 [Varlitinib tosylate] | < 0
30 | O=C(Nc1ccccc1Br)N[C@@H]1CCN(c2ccc(C(F)(F)F)cn2)C1 | < 0
31 | C[C@H](NC(=O)[C@@H](O)c1cc(F)cc(F)c1)C(=O)N[C@@H]1C(=O)N(C)c2ccccc2-c2ccccc21 | < 0
32 | COc1cc2c(Nc3ccc(Cl)c(Cl)c3F)ncnc2cc1OC[C@@H]1C[C@@H]2CN(C)C[C@@H]2C1 | < 0
